The nature of this data set: Clinical bioequivalence study: plasma concentrations (LC-MS-MS) and noncompartmental PK after oral tablet. It is filed as in vivo, human.

The text below walks through data of article PMC6118387, “In silico drug absorption tract: An agent-based biomimetic model for human oral drug absorption” (PLoS ONE, 2018).

Each structure is given as a SMILES string. Several values for one entry are separate records, joined by “and”; a condition that tells them apart may be missing. Equal entries are not always repeated. Further values from the same series stand in other lists.

Consider `O=C1CN=C(c2ccccc2Cl)c2cc([N+](=O)[O-])ccc2N1` [Clonazepam, clonazepam], for which the “Concentration, individual subjects” value by setting is: (clonazepam 2 mg oral, 0 h, one value per subject (A1-A6, A8, B1-B8; B5 consumed alcohol)) 0.00 ng/mL; (clonazepam 2 mg oral, 0.5 h, one value per subject (A1-A6, A8, B1-B8; B5 consumed alcohol)) 3.46 ng/mL and 0.00 ng/mL (3×) and 5.06 ng/mL and 2.24 ng/mL and 1.91 ng/mL and 6.20 ng/mL and 23.99 ng/mL and 16.46 ng/mL and 2.94 ng/mL and 5.71 ng/mL and 16.30 ng/mL and 7.53 ng/mL and 7.99 ng/mL; (clonazepam 2 mg oral, 1 h, one value per subject (A1-A6, A8, B1-B8; B5 consumed alcohol)) 8.36 ng/mL and 9.10 ng/mL and 20.63 ng/mL and 7.46 ng/mL and 13.61 ng/mL and 4.16 ng/mL and 15.30 ng/mL and 10.14 ng/mL and 15.98 ng/mL and 14.52 ng/mL and 11.10 ng/mL and 10.42 ng/mL and 21.63 ng/mL and 21.76 ng/mL and 10.64 ng/mL; (clonazepam 2 mg oral, 1.5 h, one value per subject (A1-A6, A8, B1-B8; B5 consumed alcohol)) 16.41 ng/mL and 12.70 ng/mL and 19.41 ng/mL and 8.14 ng/mL and 10.90 ng/mL and 7.64 ng/mL and 15.78 ng/mL and 10.64 ng/mL and 15.18 ng/mL and 15.23 ng/mL and 12.10 ng/mL and 10.61 ng/mL and 19.81 ng/mL and 17.43 ng/mL and 10.27 ng/mL; (clonazepam 2 mg oral, 2 h, one value per subject (A1-A6, A8, B1-B8; B5 consumed alcohol)) 12.50 ng/mL and 15.87 ng/mL and 9.86 ng/mL and 9.89 ng/mL and 9.44 ng/mL and 15.05 ng/mL and 12.86 ng/mL and 14.31 ng/mL and 17.65 ng/mL and 9.65 ng/mL and 12.70 ng/mL and 17.45 ng/mL and 15.53 ng/mL and 10.12 ng/mL; (clonazepam 2 mg oral, 3 h, one value per subject (A1-A6, A8, B1-B8; B5 consumed alcohol)) 12.12 ng/mL and 13.58 ng/mL and 10.03 ng/mL and 10.75 ng/mL and 8.92 ng/mL and 14.20 ng/mL and 13.87 ng/mL and 14.07 ng/mL and 16.77 ng/mL and 11.10 ng/mL and 11.99 ng/mL and 17.52 ng/mL and 12.48 ng/mL and 10.36 ng/mL. In addition, the “Concentration, individual subjects” value by setting is: (clonazepam 2 mg oral, 72 h, one value per subject (A1-A6, A8, B1-B8; B5 consumed alcohol)) 3.01 ng/mL and 3.37 ng/mL and 4.29 ng/mL and 1.96 ng/mL and 2.81 ng/mL and 2.77 ng/mL and 3.55 ng/mL and 2.75 ng/mL and 3.60 ng/mL and 4.31 ng/mL and 3.99 ng/mL and 2.51 ng/mL and 3.02 ng/mL and 1.92 ng/mL; (clonazepam 2 mg oral, 96 h, one value per subject (A1-A6, A8, B1-B8; B5 consumed alcohol)) 1.80 ng/mL and 1.86 ng/mL and 2.72 ng/mL and 1.22 ng/mL and 1.92 ng/mL and 1.68 ng/mL (2×) and 2.60 ng/mL and 1.45 ng/mL and 2.85 ng/mL and 2.43 ng/mL and 1.41 ng/mL and 1.01 ng/mL.

By half-life is commonly meant the time in which the quantity being followed falls by half. Consider `Cc1ncc2n1-c1ccc(Cl)cc1C(c1ccccc1F)=NC2` [Midazolam, midazolam], for which the half-life (human, Referent clinical, midazolam 15 mg tablet oral, N = 15, mean ±1 SD) is 3.74 ± 0.96 h. Besides, the “Concentration, individual subjects” value was 0.00 ng/mL (midazolam 15 mg oral, 0 h, one value per subject (columns A1-A8, B1-B7)); 11.33 ng/mL and 49.30 ng/mL and 31.63 ng/mL and 11.20 ng/mL and 10.52 ng/mL and 5.51 ng/mL and 12.92 ng/mL and 7.99 ng/mL and 0.00 ng/mL (2×) and 32.55 ng/mL and 3.56 ng/mL and 2.21 ng/mL and 2.75 ng/mL and 1.68 ng/mL (midazolam 15 mg oral, 0.25 h, one value per subject (columns A1-A8, B1-B7)); 53.19 ng/mL and 103.16 ng/mL and 124.33 ng/mL and 150.12 ng/mL and 87.17 ng/mL and 8.96 ng/mL and 93.49 ng/mL and 91.64 ng/mL and 85.93 ng/mL and 99.99 ng/mL and 121.73 ng/mL and 24.18 ng/mL and 15.68 ng/mL and 173.57 ng/mL and 119.95 ng/mL (midazolam 15 mg oral, 0.5 h, one value per subject (columns A1-A8, B1-B7)); 29.56 ng/mL and 42.98 ng/mL and 75.64 ng/mL and 65.70 ng/mL and 51.74 ng/mL and 68.51 ng/mL and 57.09 ng/mL and 34.56 ng/mL and 67.49 ng/mL and 41.79 ng/mL and 59.44 ng/mL and 55.30 ng/mL and 16.68 ng/mL and 111.37 ng/mL and 70.63 ng/mL (midazolam 15 mg oral, 1 h, one value per subject (columns A1-A8, B1-B7)); 42.43 ng/mL and 38.94 ng/mL and 45.93 ng/mL and 49.11 ng/mL and 42.49 ng/mL and 49.51 ng/mL and 52.60 ng/mL and 23.22 ng/mL and 68.83 ng/mL and 36.03 ng/mL and 42.37 ng/mL and 43.88 ng/mL and 47.01 ng/mL and 75.96 ng/mL and 43.80 ng/mL (midazolam 15 mg oral, 1.5 h, one value per subject (columns A1-A8, B1-B7)); 67.36 ng/mL and 43.93 ng/mL and 42.48 ng/mL and 35.22 ng/mL and 40.88 ng/mL and 56.04 ng/mL and 45.88 ng/mL and 20.89 ng/mL and 48.39 ng/mL and 41.26 ng/mL and 88.44 ng/mL and 33.26 ng/mL and 31.38 ng/mL and 84.58 ng/mL and 36.49 ng/mL (midazolam 15 mg oral, 2 h, one value per subject (columns A1-A8, B1-B7)). Moreover, the “Concentration, individual subjects” value was 2.18 ng/mL and 4.42 ng/mL and 2.40 ng/mL and 1.94 ng/mL and 2.35 ng/mL and 1.38 ng/mL and 4.14 ng/mL and 0.51 ng/mL and 3.56 ng/mL and 8.21 ng/mL and 10.47 ng/mL (midazolam 15 mg oral, 12 h, one value per subject (columns A1-A8, B1-B7)); 0.77 ng/mL and 0.00 ng/mL (9×) and 0.11 ng/mL and 0.63 ng/mL and 1.34 ng/mL and 1.56 ng/mL and 1.70 ng/mL (midazolam 15 mg oral, 24 h, one value per subject (columns A1-A8, B1-B7)).
